Results are given in words; binding and its absence hold for the method and conditions named. In cells and extracts the contact can be indirect. Some results given as binding are weak or reduced against the parent protein; the word gives no strength.
Biological target: T1, mouse CD74 (endogenous in L1.2 and RAW264.7 cells) (mouse) (UniProt P04441)
T1 sequence (looked up): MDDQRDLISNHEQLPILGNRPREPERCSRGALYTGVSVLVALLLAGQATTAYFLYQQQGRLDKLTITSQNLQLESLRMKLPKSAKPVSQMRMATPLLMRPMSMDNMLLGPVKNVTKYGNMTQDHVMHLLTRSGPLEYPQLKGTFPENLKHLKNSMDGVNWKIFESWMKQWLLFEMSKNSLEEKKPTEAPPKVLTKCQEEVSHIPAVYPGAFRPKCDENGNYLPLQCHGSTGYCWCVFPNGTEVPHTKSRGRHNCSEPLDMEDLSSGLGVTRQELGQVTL
Experiment: coimmunoprecipitation with an antibody to CXCR2 from L1.2-CXCR2 cells, immunoblot with an antibody to mouse CD74

Chains of the proteins cited; added tags and fusions are not shown.
UniProt P25025: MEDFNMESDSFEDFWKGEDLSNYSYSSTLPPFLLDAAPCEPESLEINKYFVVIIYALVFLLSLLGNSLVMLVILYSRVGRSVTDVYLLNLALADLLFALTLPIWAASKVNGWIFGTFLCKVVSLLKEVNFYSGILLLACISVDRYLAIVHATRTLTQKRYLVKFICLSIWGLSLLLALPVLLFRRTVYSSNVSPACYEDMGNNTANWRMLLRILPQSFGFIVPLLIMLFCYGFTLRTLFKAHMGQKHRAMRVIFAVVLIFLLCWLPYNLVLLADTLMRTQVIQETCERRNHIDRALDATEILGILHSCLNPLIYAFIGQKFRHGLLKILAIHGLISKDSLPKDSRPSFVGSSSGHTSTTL

- binding: binds
Substance: human CXCR2 (from UniProt P25025 1-360) (receptor)
